In paper PMC7282624 one finds binding data, which are given here for 1 substance.

The chains behind the UniProt entries cited, without tags or fusion partners.
UniProt P14635: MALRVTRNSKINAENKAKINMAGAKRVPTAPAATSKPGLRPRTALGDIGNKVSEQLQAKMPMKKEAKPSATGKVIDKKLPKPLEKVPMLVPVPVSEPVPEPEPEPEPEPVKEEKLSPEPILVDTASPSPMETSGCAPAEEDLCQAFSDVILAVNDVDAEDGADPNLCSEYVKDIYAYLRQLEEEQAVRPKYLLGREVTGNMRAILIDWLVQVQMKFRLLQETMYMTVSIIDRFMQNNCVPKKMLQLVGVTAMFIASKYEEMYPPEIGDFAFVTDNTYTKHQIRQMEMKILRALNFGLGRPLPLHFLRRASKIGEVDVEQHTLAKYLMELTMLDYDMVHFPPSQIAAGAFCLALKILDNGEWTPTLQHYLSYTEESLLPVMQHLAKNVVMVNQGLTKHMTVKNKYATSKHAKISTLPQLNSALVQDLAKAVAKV

The target of this assay is FLAG-tagged mouse ULK1 (mULK1-3FLAG) (mouse) (UniProt Q6PB82). Briefly: co-IP; anti-FLAG antibody on Protein G Dynabeads, 4 °C 12 hours, M-PER lysates of HEK-293T cells stably expressing the FLAG-tagged bait; cells asynchronous or synchronized by single-thymidine with or without nocodazole (some treated with RO-3306); western blot. (In general: Immunoblotting shows a protein as a band on a membrane.)

Results are given in words; binding and its absence hold for the method and conditions named. In cells and extracts the contact can be indirect. Binding can be weak; no strength is given.

As to “cyclin B1, endogenous (from UniProt P14635 1-433)”, the binding entry is on record as “binds”.
